Results from patent publication US20130065857A1, “NOVEL DXR INHIBITORS FOR ANTIMICROBIAL THERAPY” (Baylor College of Medicine, priority 2009, published 2013).
Converted amounts (≈) assume the structure as drawn.

System: E. coli (B/r strain)
Test: microbe, parasite or virus in culture
Format: cell-based
Conditions: Escherichia coli, 24 h, read-out: Minimal inhibition concentrations, E. coli

CC1(C)S[C@@H]2[C@H](NC(=O)[C@H](N)c3ccccc3)C(=O)N2[C@H]1C(=O)O [ampicillin]
MIC: 5 µM (≈ 1.75 µg/mL)
